Publication PMC11157767 (Molecular Cancer, 2024)
This continues a long series; more values of the same kind are listed elsewhere.

System: TFG-MET allograft tumors
Experiment: RNA-sequencing, differential expression and GSEA of TFG-MET allograft tumors
Type: in vivo, mouse
Conditions: CAP.v.Veh
Procedure: Error bars display standard error of mean, statistical significance was determined using t-test analysis. (****;p<0.0001, ***;p<0.001, **;p<0.01, *;p<0.05). […] Each dot represents an individual replicate. Error bars display standard error of the mean.
Each dot represents one gene.

[1] = GOCC_ENDOPLASMIC_RETICULUM_TUBULAR_NETWORK
[2] = GOCC_ER_TO_GOLGI_TRANSPORT_VESICLE_MEMBRANE
[3] = GOCC_EXTRINSIC_COMPONENT_OF_MEMBRANE
[4] = GOCC_EXTRINSIC_COMPONENT_OF_ORGANELLE_MEMBRANE
[5] = GOCC_EXTRINSIC_COMPONENT_OF_PLASMA_MEMBRANE
[6] = GOCC_FICOLIN_1_RICH_GRANULE_LUMEN
[7] = GOCC_GOLGI_ASSOCIATED_VESICLE_MEMBRANE
[8] = GOCC_HIPPOCAMPAL_MOSSY_FIBER_TO_CA3_SYNAPSE
[9] = GOCC_HISTONE_DEACETYLASE_COMPLEX
[10] = GOCC_INTERMEDIATE_FILAMENT_CYTOSKELETON
[11] = GOCC_INTRINSIC_COMPONENT_OF_EXTERNAL_SIDE_OF_PLASMA_MEMBRANE
[12] = GOCC_INTRINSIC_COMPONENT_OF_GOLGI_MEMBRANE
[13] = GOCC_INTRINSIC_COMPONENT_OF_MITOCHONDRIAL_INNER_MEMBRANE
[14] = GOCC_INTRINSIC_COMPONENT_OF_MITOCHONDRIAL_OUTER_MEMBRANE
[15] = GOCC_INTRINSIC_COMPONENT_OF_ORGANELLE_MEMBRANE
[16] = GOCC_INTRINSIC_COMPONENT_OF_PEROXISOMAL_MEMBRANE
[17] = GOCC_INTRINSIC_COMPONENT_OF_POSTSYNAPTIC_DENSITY_MEMBRANE
[18] = GOCC_INTRINSIC_COMPONENT_OF_POSTSYNAPTIC_SPECIALIZATION_MEMBRANE
[19] = GOCC_INTRINSIC_COMPONENT_OF_PRESYNAPTIC_MEMBRANE

Q: Which results are given for `CNC(=O)c1ccc(-c2cnc3ncc(Cc4ccc5ncccc5c4)n3n2)cc1F` [Capmatinib]?
A: NES (GOCC_ENDOPLASMIC_RETICULUM_QUALITY_CONTROL_COMPARTMENT): 1.008; ES [1]: 0.3331; NES [1]: 1.16; ES [2]: -0.2748; NES [2]: -1.032; ES (GOCC_ESCRT_COMPLEX): 0.3674; NES (GOCC_ESCRT_COMPLEX): 1.329; ES (GOCC_EXCITATORY_SYNAPSE): 0.242; NES (GOCC_EXCITATORY_SYNAPSE): 1.023; ES (GOCC_EXOCYST): 0.2995; NES (GOCC_EXOCYST): 0.9932; ES [3]: -0.2076; NES [3]: -0.9536; ES [4]: 0.22; NES [4]: 0.9521; ES [5]: -0.2067; NES [5]: -0.8998; ES [6]: 0.1986; NES [6]: 1.018; ES (GOCC_FILOPODIUM): -0.2802; NES (GOCC_FILOPODIUM): -1.142; ES (GOCC_FILOPODIUM_TIP): -0.3369; NES (GOCC_FILOPODIUM_TIP): -0.9394; ES (GOCC_FLEMMING_BODY): 0.186; NES (GOCC_FLEMMING_BODY): 0.7169; ES (GOCC_GABA_ERGIC_SYNAPSE): -0.2414; NES (GOCC_GABA_ERGIC_SYNAPSE): -0.9108; ES (GOCC_GABA_RECEPTOR_COMPLEX): -0.2499; NES (GOCC_GABA_RECEPTOR_COMPLEX): -0.6969; ES (GOCC_GAMMA_TUBULIN_COMPLEX): -0.4445; NES (GOCC_GAMMA_TUBULIN_COMPLEX): -1.309; ES (GOCC_GAP_JUNCTION): 0.2412; NES (GOCC_GAP_JUNCTION): 0.8154; ES (GOCC_GLIAL_CELL_PROJECTION): -0.3063; NES (GOCC_GLIAL_CELL_PROJECTION): -0.9976; ES (GOCC_GOLGI_ASSOCIATED_VESICLE): -0.2261; NES (GOCC_GOLGI_ASSOCIATED_VESICLE): -0.8988; ES [7]: -0.2553; NES [7]: -0.9152; ES (GOCC_GOLGI_CISTERNA_MEMBRANE): -0.2134; NES (GOCC_GOLGI_CISTERNA_MEMBRANE): -0.8134; ES (GOCC_GOLGI_LUMEN): -0.2399; NES (GOCC_GOLGI_LUMEN): -0.9201; ES (GOCC_GTPASE_COMPLEX): 0.273; NES (GOCC_GTPASE_COMPLEX): 1.059; ES [8]: 0.3101; NES [8]: 1.194; ES [9]: -0.334; NES [9]: -1.306; ES (GOCC_INCLUSION_BODY): -0.3051; NES (GOCC_INCLUSION_BODY): -1.177; ES (GOCC_INO80_TYPE_COMPLEX): -0.437; NES (GOCC_INO80_TYPE_COMPLEX): -1.3785; ES (GOCC_INTERCALATED_DISC): 0.1889; NES (GOCC_INTERCALATED_DISC): 0.7989; ES (GOCC_INTERCELLULAR_BRIDGE): -0.2897; NES (GOCC_INTERCELLULAR_BRIDGE): -1.115; ES [10]: -0.2678; NES [10]: -1.105; ES [11]: 0.2304; NES [11]: 0.7871; ES [12]: -0.1946; NES [12]: -0.7334; ES [13]: -0.2479; NES [13]: -0.8967; ES [14]: -0.2385; NES [14]: -0.7165; ES [15]: 0.1635; NES [15]: 0.9668; ES [16]: 0.4051; NES [16]: 1.273; ES [17]: 0.1796; NES [17]: 0.7979; ES [18]: 0.187; NES [18]: 0.8651; ES [19]: 0.2218; NES [19]: 1.013; ES (GOCC_I_BAND): -0.224; NES (GOCC_I_BAND): -0.9319; ES (GOCC_KINESIN_COMPLEX): -0.2872
